# Assay results taken from the supplement of paper PMC12819154, “High-throughput peptide-centric local stability assay extends protein–ligand identification to membrane proteins, tissues and bacteria” (Nature Structural & Molecular Biology, 2025).
# The chains behind the UniProt entries cited, without tags or fusion partners. Where a name states a change or a piece, a line headed by the entry shows the natural chain unless it says otherwise.
# UniProt P31040: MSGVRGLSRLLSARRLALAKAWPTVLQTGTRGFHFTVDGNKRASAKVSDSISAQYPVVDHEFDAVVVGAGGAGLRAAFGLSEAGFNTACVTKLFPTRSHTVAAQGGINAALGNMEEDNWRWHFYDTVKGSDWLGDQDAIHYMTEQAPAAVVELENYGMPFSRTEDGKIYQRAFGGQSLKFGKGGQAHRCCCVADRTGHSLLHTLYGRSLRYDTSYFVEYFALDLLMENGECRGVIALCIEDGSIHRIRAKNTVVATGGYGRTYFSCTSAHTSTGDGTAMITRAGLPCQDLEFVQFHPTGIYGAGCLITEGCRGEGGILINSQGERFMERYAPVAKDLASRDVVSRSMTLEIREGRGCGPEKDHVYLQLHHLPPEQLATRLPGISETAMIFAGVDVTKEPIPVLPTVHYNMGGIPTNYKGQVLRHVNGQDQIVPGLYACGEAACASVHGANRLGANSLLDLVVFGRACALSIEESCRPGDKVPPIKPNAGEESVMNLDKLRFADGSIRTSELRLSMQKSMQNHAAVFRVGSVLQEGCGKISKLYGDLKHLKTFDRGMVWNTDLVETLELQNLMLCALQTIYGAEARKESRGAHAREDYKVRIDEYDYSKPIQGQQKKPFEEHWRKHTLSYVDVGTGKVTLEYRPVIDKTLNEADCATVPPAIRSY
# UniProt P31946: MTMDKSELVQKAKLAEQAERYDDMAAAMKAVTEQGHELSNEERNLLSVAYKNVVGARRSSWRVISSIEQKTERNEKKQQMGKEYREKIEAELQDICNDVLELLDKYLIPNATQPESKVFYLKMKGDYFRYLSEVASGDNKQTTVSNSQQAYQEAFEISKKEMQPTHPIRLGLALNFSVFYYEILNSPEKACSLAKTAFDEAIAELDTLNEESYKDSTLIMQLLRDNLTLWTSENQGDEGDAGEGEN
# UniProt P29966: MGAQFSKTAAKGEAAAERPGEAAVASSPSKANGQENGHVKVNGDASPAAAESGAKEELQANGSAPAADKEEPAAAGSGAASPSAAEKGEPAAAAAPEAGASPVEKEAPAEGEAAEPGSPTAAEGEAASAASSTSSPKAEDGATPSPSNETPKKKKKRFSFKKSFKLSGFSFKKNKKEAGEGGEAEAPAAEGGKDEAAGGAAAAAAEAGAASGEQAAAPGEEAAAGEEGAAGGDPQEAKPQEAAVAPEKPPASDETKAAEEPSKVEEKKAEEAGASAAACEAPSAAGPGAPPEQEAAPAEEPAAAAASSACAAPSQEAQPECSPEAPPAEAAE
# UniProt P30837: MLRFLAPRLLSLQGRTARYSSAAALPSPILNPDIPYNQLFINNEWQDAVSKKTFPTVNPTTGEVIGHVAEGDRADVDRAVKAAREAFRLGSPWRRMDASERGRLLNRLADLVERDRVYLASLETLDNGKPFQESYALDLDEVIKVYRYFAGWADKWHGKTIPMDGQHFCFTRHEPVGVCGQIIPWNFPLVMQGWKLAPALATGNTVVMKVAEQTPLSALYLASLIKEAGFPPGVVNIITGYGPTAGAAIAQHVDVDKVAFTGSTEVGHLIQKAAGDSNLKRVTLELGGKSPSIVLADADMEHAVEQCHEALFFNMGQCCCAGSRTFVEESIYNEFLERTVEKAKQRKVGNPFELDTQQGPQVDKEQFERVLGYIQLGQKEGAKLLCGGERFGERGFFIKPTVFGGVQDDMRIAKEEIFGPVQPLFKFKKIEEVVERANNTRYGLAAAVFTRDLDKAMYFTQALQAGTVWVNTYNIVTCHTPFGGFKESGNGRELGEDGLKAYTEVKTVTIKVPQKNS
# UniProt P33993, whole entry: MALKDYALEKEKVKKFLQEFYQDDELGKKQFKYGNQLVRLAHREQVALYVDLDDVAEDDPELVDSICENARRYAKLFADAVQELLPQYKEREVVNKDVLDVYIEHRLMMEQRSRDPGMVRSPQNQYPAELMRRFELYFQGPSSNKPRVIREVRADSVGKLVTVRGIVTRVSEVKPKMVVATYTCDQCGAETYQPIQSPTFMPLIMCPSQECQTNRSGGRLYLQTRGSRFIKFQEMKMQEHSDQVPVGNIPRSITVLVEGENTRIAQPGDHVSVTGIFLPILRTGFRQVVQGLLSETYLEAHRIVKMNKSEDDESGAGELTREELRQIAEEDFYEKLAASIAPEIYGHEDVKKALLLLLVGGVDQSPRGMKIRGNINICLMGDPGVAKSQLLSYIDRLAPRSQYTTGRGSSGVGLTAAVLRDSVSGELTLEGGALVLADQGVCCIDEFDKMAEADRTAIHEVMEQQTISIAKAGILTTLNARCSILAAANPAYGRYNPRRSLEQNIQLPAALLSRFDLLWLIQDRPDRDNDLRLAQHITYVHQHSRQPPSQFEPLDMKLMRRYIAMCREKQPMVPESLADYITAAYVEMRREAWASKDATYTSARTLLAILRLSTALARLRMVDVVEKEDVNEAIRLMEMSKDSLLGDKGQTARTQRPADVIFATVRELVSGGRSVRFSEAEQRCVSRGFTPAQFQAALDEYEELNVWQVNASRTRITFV
# UniProt P40424: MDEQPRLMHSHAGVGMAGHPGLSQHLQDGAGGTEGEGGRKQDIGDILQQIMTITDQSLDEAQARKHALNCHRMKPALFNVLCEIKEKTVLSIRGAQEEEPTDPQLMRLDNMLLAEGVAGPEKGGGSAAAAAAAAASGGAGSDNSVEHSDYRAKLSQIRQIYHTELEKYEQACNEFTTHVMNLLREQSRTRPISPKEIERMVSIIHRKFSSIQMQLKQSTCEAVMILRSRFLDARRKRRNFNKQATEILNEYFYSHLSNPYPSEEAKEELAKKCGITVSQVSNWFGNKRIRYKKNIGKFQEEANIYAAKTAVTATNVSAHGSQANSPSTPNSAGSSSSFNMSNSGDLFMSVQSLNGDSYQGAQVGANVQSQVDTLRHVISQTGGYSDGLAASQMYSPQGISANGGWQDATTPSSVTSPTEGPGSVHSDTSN
# UniProt P31150: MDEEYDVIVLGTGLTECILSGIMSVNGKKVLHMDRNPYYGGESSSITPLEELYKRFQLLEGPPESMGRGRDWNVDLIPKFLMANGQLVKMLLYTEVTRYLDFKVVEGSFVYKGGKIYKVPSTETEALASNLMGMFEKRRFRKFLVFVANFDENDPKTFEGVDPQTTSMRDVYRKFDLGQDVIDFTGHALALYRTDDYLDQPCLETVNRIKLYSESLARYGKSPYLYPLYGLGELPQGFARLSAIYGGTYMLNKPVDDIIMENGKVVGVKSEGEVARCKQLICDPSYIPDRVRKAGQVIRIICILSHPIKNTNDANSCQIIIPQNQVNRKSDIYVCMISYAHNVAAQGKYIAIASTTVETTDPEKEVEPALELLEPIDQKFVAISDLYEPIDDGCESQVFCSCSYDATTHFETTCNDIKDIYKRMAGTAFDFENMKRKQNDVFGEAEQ
# UniProt P30304: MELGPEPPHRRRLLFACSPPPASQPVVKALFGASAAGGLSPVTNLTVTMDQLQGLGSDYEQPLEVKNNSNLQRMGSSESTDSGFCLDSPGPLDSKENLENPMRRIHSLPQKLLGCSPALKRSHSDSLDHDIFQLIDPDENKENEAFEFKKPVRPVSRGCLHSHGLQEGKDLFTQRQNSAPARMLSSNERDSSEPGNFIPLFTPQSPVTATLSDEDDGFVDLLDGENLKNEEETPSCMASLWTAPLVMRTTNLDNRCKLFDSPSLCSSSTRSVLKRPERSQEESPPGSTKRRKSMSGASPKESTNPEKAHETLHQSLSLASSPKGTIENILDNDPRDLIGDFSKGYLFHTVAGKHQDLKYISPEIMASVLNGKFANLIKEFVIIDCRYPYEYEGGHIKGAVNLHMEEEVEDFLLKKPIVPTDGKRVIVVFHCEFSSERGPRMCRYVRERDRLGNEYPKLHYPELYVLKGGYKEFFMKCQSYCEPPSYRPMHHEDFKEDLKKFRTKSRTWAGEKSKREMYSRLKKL
# UniProt P29084: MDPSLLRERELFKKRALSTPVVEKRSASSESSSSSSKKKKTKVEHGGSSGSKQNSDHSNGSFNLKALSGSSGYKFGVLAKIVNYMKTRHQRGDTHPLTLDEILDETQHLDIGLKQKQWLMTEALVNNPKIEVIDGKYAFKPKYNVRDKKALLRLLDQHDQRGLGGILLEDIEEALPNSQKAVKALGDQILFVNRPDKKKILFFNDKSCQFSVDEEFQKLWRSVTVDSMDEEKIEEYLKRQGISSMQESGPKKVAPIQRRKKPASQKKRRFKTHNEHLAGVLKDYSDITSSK
# UniProt P43034: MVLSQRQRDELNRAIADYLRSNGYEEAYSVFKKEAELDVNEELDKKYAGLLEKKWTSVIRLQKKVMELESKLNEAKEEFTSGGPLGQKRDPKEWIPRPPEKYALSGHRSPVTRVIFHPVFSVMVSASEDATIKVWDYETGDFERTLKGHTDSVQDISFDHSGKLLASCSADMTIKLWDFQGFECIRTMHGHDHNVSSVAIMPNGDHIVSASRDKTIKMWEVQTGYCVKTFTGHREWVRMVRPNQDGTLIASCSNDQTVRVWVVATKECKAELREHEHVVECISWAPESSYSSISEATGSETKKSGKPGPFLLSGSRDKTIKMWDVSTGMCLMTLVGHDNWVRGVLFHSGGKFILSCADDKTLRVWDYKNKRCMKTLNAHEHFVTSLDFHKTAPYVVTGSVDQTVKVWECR
# UniProt P40222: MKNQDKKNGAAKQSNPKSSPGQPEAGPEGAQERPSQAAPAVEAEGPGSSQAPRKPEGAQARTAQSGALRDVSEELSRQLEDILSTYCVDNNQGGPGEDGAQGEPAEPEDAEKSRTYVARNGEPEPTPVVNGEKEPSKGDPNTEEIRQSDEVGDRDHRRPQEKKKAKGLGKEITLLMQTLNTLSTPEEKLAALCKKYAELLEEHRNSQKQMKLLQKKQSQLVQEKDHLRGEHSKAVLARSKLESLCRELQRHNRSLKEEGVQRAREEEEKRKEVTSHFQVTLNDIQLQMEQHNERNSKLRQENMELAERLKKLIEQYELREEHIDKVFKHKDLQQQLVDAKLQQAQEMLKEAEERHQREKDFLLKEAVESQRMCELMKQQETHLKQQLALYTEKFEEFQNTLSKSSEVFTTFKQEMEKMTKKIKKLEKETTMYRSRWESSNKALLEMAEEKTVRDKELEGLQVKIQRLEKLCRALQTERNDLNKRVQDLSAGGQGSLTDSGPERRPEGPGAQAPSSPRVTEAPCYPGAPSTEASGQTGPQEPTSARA
# UniProt P40692: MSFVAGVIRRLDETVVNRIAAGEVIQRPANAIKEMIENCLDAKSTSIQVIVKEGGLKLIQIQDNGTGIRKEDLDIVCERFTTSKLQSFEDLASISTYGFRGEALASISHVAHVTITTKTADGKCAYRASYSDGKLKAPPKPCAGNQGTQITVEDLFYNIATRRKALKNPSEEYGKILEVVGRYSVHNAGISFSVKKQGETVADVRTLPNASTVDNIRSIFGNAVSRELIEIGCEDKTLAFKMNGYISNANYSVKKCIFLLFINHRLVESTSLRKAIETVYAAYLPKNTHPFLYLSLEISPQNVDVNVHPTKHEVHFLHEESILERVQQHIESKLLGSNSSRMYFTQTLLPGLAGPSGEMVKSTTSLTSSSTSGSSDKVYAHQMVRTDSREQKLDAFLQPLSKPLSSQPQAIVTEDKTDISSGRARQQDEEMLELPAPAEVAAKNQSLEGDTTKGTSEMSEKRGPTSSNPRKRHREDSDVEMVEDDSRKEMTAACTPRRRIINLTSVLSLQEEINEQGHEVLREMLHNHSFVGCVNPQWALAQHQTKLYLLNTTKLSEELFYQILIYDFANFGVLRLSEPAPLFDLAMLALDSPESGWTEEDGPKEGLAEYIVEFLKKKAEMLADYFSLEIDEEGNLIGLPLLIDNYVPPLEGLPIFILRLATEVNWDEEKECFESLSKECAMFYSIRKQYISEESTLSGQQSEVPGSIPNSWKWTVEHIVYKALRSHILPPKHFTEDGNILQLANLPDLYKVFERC
# UniProt P37173, whole entry: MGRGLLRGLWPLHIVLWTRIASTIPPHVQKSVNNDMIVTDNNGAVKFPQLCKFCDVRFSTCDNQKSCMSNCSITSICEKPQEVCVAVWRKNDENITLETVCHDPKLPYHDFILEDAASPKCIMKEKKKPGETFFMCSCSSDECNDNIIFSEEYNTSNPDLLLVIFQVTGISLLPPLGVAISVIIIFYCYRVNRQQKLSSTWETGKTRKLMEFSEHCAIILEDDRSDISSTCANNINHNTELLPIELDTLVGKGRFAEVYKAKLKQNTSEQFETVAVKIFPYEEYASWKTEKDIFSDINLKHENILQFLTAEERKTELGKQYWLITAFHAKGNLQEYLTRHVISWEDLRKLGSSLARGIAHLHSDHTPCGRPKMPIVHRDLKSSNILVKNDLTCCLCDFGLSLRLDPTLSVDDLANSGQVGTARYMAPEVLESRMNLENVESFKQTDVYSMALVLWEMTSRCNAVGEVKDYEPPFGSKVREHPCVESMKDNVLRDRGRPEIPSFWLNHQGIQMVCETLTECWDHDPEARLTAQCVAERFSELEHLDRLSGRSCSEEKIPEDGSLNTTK
# This is one part of the list. Most values lie at the level of the controls, where differences are scatter.
# Compound: Cc1nc(Nc2ncc(C(=O)Nc3c(C)cccc3Cl)s2)cc(N2CCN(CCO)CC2)n1 [dasatinib]
# Test: log2 fold change of tryptic peptide abundance, ligand vs vehicle (limited proteolysis) (log2 ratio); higher = more trypsin-susceptible (destabilized)
# Conditions: ligand concentration: 5 uM; sample: K562 cleared lysate
row,Target,log2 fold change
1,"SDHA (peptide sequence: GEGGILINSQGER, peptide start residue: 313) (UniProt P31040)",-0.546
2,"UniProt P28698 (peptide sequence: EGGFAHALLLPSDLR, peptide start residue: 298)",0.162
3,"MTOR (peptide sequence: YHPQALIYPLTVASK, peptide start residue: 1967) (UniProt P42345)",-0.519
4,"YWHAB (peptide sequence: MKGDYFR, peptide start residue: 121) (UniProt P31946)",0.0831
5,"MARCKS (peptide sequence: GEAAAERPGEAAVASSPSK, peptide start residue: 12) (UniProt P29966)",0.115
6,"ALDH1B1 (peptide sequence: VAFTGSTEVGHLIQK, peptide start residue: 258) (UniProt P30837)",0.235
7,"MCM7 (peptide sequence: EDVNEAIR, peptide start residue: 628) (UniProt P33993)",-0.282
8,"ATP7B (peptide sequence: ILGMTCQSCVK, peptide start residue: 64) (UniProt P35670)",0.116
9,"P41778 (peptide sequence: KCGITVSQVSNWFGNKR, peptide start residue: 283) (UniProt P40424)",0.137
10,"GDI1 (peptide sequence: KQNDVFGEAEQ, peptide start residue: 437) (UniProt P31150)",0.00162
11,"CDC25A (peptide sequence: GCLHSHGLQEGK, peptide start residue: 158) (UniProt P30304)",0.204
12,"GTF2E2 (peptide sequence: QKQWLMTEALVNNPK, peptide start residue: 115) (UniProt P29084)",-0.342
13,"PAFAH1B1 (peptide sequence: SNGYEEAYSVFKK, peptide start residue: 21) (UniProt P43034)",-0.505
14,"TXLNA (peptide sequence: AREEEEK, peptide start residue: 263) (UniProt P40222)",0.214
15,"MLH1 (peptide sequence: CIFLLFINHR, peptide start residue: 256) (UniProt P40692)",-0.429
16,"TGFBR2 (peptide sequence: GIAHLHSDHTPCGRPK, peptide start residue: 357) (UniProt P37173)",0.309
17,"STAT3 (peptide sequence: IVARCLWEESR, peptide start residue: 104) (UniProt P40763)",-0.456

# Shown bar-delimited: entries from further up
row | Target | log2 fold change
8 | ATP7B (peptide sequence: ILGMTCQSCVK, peptide start residue: 64) (UniProt P35670) | 0.116
9 | P41778 (peptide sequence: KCGITVSQVSNWFGNKR, peptide start residue: 283) (UniProt P40424) | 0.137
